Test results from article PMC10409759.
Results are given in words; binding and its absence hold for the method and conditions named. Binding seen in cells or lysates may run through a third protein. Binding can be weak; no strength is given. Tags and fused reporters may be left off the sequences shown.

Target: Flag-tagged LEF1 HMG domain (human (cDNA from CAL 27 cells))
Assay: co-IP; Flag- and EGFP-tagged proteins overexpressed together in HEK293T; whole-cell lysates; IP with antibodies against Flag and blot against EGFP (Fig. 2E, 2F); IgG or pCMV6 plasmid as negative control

binding: binds
B1: EGFP-tagged KDM4A (protein, UniProt O75164 1-1064)
chain: MASESETLNPSARIMTFYPTMEEFRNFSRYIAYIESQGAHRAGLAKVVPPKEWKPRASYDDIDDLVIPAPIQQLVTGQSGLFTQYNIQKKAMTVREFRKIANSDKYCTPRYSEFEELERKYWKNLTFNPPIYGADVNGTLYEKHVDEWNIGRLRTILDLVEKESGITIEGVNTPYLYFGMWKTSFAWHTEDMDLYSINYLHFGEPKSWYSVPPEHGKRLERLAKGFFPGSAQSCEAFLRHKMTLISPLMLKKYGIPFDKVTQEAGEFMITFPYGYHAGFNHGFNCAESTNFATRRWIEYGKQAVLCSCRKDMVKISMDVFVRKFQPERYKLWKAGKDNTVIDHTLPTPEAAEFLKESELPPRAGNEEECPEEDMEGVEDGEEGDLKTSLAKHRIGTKRHRVCLEIPQEVSQSELFPKEDLSSEQYEMTECPAALAPVRPTHSSVRQVEDGLTFPDYSDSTEVKFEELKNVKLEEEDEEEEQAAAALDLSVNPASVGGRLVFSGSKKKSSSSLGSGSSRDSISSDSETSEPLSCRAQGQTGVLTVHSYAKGDGRVTVGEPCTRKKGSAARSFSERELAEVADEYMFSLEENKKSKGRRQPLSKLPRHHPLVLQECVSDDETSEQLTPEEEAEETEAWAKPLSQLWQNRPPNFEAEKEFNETMAQQAPHCAVCMIFQTYHQVEFGGFNQNCGNASDLAPQKQRTKPLIPEMCFTSTGCSTDINLSTPYLEEDGTSILVSCKKCSVRVHASCYGVPPAKASEDWMCSRCSANALEEDCCLCSLRGGALQRANDDRWVHVSCAVAILEARFVNIAERSPVDVSKIPLPRFKLKCIFCKKRRKRTAGCCVQCSHGRCPTAFHVSCAQAAGVMMQPDDWPFVVFITCFRHKIPNLERAKGALQSITAGQKVISKHKNGRFYQCEVVRLTTETFYEVNFDDGSFSDNLYPEDIVSQDCLQFGPPAEGEVVQVRWTDGQVYGAKFVASHPIQMYQVEFEDGSQLVVKRDDVYTLDEELPKRVKSRLSVASDMRFNEIFTEKEVKQEKKRQRVINSRYREDYIEPALYRAIME
